The values below are quoted from earlier work in patent publication US20030099944A1, “Combination therapy involving drugs which target cellular proteins and drugs which target pathogen-encoded proteins” (priority 1998, published 2003).

For orientation: IC50 means the concentration that gives 50% inhibition.

This data set has as its system a wide variety of mammalian cells. Conditions: read-out: average IC50, block of cell-cycle progression; cited from earlier work.

In the case of `CC[C@H](CO)Nc1nc(NCc2ccccc2)c2ncn(C(C)C)c2n1` [Rosco, Roscovitine], the concentration for half-maximal inhibition (IC50) was 16 µM.
